Data published in patent US20050282755A1, “Compositions having antimicrobial activity and uses thereof” (priority 2004, published 2005).
At least one peptide structure holds a part that was inferred or is arguable (an end, a ring closure or a residue). Residues, ends and D or L forms follow the SMILES beside them. *: point of attachment. Lauroyl = CCCCCCCCCCCC(=O)*

How the values were obtained:
[1] = system: indigenous bacteria in human sebum; assay: Human sebum assay, bactericidal activity; format: cell-based; settings: 250 Micromolar peptide, 150 minutes at 37° C; none: 8500000
Procedure: Sebum was harvested from healthy human volunteers using Biore® deep cleansing pore strips. The seburn plugs were collected in a microtube with a tweezer. […] The seburn was resusupended in 1% TSB, 10 mM Na2HPO4 into fine particulate suspension. The assay was performed in a total volume of 50 microliters. […] The samples were incubated for 150 minutes at 37° C. To determine the number of viable bacteria, a serial dilution was prepared (10 fold dilutions to 1/100000). […] After incubation for 72 hours bacterial growth was documented (Alpha Innotech documentation system). The number of CFU/milliliter was determined by counting bacteria colonies. The efficacy of a peptide is indicated by the reduction of CFU/milliliter compared to the untreated control.

P. acnes, ATCC 6919 = assay: Broth microdilution assay for P. acnes MBC, Table 4B; format: cell-based, Propionibacterium acnes; settings: 3 log or greater reduction in CFU/milliliter after 2.5 hours
From the text: The strain of P. acnes was purchased from ATCC (strain #6919) (Manassas, Va.). […] HeLa cells were purchased from ATCC (CCL2). Tryptic soy broth (TSB), Brucella broth, reinforced Clostridial broth and agar were purchased from Becton & Dickinson (distributed by VWR, West Chester, Pa.). All plastic consumables were purchased from VWR (West Chester, Pa.). Chemicals were purchased from Sigma Aldrich (St. Louis, Mo.). DMEM, antibiotics and cell culture supplements were purchased from Invitrogen (Carlsbad, Calif.), fetal calf serum (FCS) was purchased from Hyclone (Logan, Utah). […] For propagation in liquid culture individual colonies were inoculated in […] of TSB broth for 16 hours at 37° C. under constant shaking. P. acnes was grown on Brucella broth blood agar plates (supplemented with 5% defibrinated sheep blood, […] hemin and […] vitamin K) under anaerobic conditions (GasPak system, Becton & Dickinson) for 96 hours at 37° C. For propagation in liquid culture individual colonies were inoculated in […] of reinforced Clostridial broth under anaerobic conditions for 72 hours at 37° C. […] The minimum bactericidal concentration (MBC) of peptide compositions for P. acnes was determined in a microdilution assay. […] The appearance of bacterial colonies was evaluated and documented.

In the case of CCCCCCCCCCCC(=O)N[C@H](C(=O)N[C@@H](CCCNC(=N)N)C(=O)N[C@H](C(=O)N[C@@H](CO)C(=O)N[C@@H](CCCNC(=N)N)C(=O)N[C@H](C(=O)NCC(=O)N[C@@H](CCCNC(=N)N)C(=O)N[C@@H](CO)C(=O)N[C@@H](CCCNC(=N)N)C(=O)N[C@@H](Cc1c[nH]c2ccccc12)C(=O)N[C@@H](CCCNC(=N)N)C(=O)N[C@@H](CC(=O)O)C(=O)N[C@@H](Cc1c[nH]c2ccccc12)C(=O)N[C@@H](CO)C(=O)N[C@@H](CCCNC(=N)N)C(=O)N[C@@H](CC(N)=O)C(=O)N[C@@H](Cc1ccccc1)C(=O)N[C@@H](CCSC)C(=O)N[C@@H](CCCNC(=N)N)C(=O)N[C@@H](CCCCN)C(N)=O)[C@@H](C)O)C(C)C)[C@@H](C)O [Peptide 64] (Lauroyl-TRVSRTGRSRWRDWSRNFMRK-NH2), the “Bactericidal activity for indigenous bacteria in human sebum, cfu/ml” value [1] is reported as 4100 cfu/ml and the “Minimum bactericidal concentration (MBC) for P. acnes” value (P. acnes, ATCC 6919) is reported as 8 micromolar units.
